# For at least one entry, the source does not settle the construct or the ends of the probe. At least one result comes from cells or an extract, where the contact may be indirect.
# Molecular target: PITX3 wild-type (Homo sapiens) (UniProt O75364)
# Experiment: EMSA with supershift
# Conditions: poly[d(I-C)], several complexes, supershifted by anti-PITX3 antibody; LightShift kit binding buffer (composition and pH not given), 50 ng/ul poly[d(I-C)], 20 fmol probe, RT 15 min (30 min with antibody), 5% PAGE in 1x TBE; protein in a lysate after overexpression; protein details: C-terminal c-Myc and His (pcDNA3.1 MycHisC); label: 3' biotin
sequence,measurement,value
GATCCTAATCCCGTCGCGTCGTAATCCGGATC (double strand) [bicoid probe (Bcd 2x 10n)],binding result,binds

# Reference: paper PMC2093940
